Reference: the supplement of paper PMC12823440, “Inhibitors supercharge kinase turnover through native proteolytic circuits” (Nature, 2025)
Counter-ions that a name gives are not always drawn. The list shows a part of the results. Hit calls seldom repeat between salt and free forms of one compound.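 Kinases were expressed as nanoluciferase fusions in K562 cells and luminescence was read every 4 h between 2 and 18 h as percent of control, DMSO set to 100% and a positive control to 0%. A time point counts as decreased when the signal drops significantly (2 sigma). The hit call is the authors' own, does not follow from the count of time points alone, and its rule is not shown.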

The chains behind the UniProt entries cited, without tags or fusion partners. Where a name states a change or a piece, a line headed by the entry shows the natural chain unless it says otherwise.
UniProt Q06187: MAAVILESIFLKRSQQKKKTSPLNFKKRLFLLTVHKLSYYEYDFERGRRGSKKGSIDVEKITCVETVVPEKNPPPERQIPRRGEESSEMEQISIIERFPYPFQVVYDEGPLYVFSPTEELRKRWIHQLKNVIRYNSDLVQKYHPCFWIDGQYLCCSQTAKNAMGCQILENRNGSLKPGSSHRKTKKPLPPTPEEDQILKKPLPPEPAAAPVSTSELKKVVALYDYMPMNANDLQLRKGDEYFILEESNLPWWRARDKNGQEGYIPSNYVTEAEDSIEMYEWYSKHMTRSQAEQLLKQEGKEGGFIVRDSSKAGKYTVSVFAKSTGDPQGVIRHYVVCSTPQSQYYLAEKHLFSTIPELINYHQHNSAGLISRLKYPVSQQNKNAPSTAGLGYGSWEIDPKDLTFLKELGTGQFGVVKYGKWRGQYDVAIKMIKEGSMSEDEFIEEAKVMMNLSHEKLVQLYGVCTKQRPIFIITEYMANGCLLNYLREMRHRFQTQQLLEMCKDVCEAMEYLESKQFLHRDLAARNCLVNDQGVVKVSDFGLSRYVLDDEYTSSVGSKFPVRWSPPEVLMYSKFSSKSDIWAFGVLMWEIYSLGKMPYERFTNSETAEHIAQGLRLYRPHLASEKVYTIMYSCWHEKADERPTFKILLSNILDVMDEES
UniProt Q9UQM7, whole entry: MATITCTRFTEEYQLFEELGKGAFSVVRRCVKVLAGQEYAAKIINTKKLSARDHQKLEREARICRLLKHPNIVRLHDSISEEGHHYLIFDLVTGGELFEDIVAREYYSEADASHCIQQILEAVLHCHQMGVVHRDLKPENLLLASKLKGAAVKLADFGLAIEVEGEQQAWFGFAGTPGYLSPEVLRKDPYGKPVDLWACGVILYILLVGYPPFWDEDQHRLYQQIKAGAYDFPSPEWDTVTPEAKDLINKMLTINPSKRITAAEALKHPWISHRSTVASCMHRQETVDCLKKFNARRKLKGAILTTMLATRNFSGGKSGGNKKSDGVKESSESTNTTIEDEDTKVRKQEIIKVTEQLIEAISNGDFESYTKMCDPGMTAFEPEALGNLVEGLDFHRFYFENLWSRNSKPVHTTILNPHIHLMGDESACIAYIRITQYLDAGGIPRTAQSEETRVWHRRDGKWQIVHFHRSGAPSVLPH
UniProt Q13555: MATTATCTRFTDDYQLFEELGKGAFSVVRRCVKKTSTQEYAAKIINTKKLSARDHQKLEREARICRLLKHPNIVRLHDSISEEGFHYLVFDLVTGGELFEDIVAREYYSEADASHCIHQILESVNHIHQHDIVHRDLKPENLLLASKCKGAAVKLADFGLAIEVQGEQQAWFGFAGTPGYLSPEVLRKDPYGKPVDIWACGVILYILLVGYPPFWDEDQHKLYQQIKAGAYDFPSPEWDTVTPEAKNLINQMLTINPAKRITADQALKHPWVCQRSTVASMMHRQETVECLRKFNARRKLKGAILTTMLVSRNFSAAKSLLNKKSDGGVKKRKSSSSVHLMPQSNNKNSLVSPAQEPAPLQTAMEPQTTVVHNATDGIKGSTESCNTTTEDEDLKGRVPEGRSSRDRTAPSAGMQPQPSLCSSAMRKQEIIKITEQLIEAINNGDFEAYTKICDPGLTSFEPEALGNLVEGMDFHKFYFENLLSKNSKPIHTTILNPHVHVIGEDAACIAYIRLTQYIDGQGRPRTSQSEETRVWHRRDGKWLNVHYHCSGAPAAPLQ
UniProt Q15131: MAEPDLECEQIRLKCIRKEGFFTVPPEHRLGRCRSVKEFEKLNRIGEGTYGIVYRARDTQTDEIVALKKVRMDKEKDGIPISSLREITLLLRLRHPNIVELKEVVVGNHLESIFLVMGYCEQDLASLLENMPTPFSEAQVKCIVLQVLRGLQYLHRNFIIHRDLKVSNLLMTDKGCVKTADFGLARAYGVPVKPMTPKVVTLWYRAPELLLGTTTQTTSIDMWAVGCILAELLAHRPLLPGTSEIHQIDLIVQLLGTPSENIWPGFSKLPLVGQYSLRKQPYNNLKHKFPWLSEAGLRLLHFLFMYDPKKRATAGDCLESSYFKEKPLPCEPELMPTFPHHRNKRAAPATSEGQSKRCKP
UniProt Q00526: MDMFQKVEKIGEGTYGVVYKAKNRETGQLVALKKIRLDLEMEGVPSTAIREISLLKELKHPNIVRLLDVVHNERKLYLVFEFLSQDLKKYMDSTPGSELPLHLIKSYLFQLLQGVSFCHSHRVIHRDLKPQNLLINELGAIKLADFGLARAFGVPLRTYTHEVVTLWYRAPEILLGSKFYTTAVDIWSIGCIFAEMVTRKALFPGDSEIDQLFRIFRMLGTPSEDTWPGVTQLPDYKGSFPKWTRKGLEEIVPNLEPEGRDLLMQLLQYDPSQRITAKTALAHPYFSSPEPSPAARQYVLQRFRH
UniProt P11802: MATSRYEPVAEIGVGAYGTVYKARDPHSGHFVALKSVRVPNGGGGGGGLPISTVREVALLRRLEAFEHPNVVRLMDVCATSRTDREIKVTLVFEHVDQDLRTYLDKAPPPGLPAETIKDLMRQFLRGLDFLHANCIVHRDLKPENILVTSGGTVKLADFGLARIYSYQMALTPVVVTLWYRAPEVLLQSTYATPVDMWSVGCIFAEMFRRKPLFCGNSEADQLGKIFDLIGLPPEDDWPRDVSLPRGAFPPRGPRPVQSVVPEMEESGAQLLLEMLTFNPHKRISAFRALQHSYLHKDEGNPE
UniProt Q00535, whole entry, looked up: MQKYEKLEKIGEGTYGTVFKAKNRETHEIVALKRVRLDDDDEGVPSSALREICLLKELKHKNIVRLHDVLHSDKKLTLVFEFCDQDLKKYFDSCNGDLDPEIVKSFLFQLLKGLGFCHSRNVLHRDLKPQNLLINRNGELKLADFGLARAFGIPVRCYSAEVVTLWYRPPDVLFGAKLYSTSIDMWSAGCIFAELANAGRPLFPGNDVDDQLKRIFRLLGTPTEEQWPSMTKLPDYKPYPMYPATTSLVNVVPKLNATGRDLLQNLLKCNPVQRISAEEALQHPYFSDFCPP
UniProt Q00534, whole entry: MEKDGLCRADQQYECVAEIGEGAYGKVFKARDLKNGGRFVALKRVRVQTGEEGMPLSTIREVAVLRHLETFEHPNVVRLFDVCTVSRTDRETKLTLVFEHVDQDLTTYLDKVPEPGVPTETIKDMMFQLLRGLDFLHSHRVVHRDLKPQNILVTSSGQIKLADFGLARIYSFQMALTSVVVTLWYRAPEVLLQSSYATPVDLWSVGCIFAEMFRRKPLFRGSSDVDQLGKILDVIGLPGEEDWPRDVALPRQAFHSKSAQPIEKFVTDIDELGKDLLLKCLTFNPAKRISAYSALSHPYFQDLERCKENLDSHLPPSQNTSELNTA

Assays:
Assay in all cases: kinase-Nluc reporter destabilization hit call (1 = scored as downregulated) (binary); higher = compound decreases kinase abundance
Conditions in all cases: K562; 2-18 h
BRAF_V600E = system: BRAF_V600E
BTK = BTK (UniProt Q06187)
CAMK2A = CAMK2A (UniProt Q9UQM7)
CAMK2G = CAMK2G (UniProt Q13555)
CDK10 = CDK10 (UniProt Q15131)
CDK2 = CDK2 (UniProt P24941)
CDK3 = CDK3 (UniProt Q00526)
CDK4 = CDK4 (UniProt P11802)
CDK5 = CDK5 (UniProt Q00535)
CDK6 = CDK6 (UniProt Q00534)

Measured: kinase-Nluc reporter destabilization hit call

CN(C/C=C/C(=O)Nc1ccc(C(=O)Nc2cccc(Nc3ncc(Cl)c(-c4c[nH]c5ccccc45)n3)c2)cc1)CCCNC(=O)NCCOCCOCCOCCNC(=O)CCCC[C@@H]1SC[C@@H]2NC(=O)N[C@@H]21 (2.5 µM)
inactive: BRAF_V600E 0 | BTK 0 | CAMK2A 0 | CAMK2G 0 | CDK10 = 0 | CDK2 = 0 | CDK3 = 0 | CDK4 = 0 | CDK5 = 0 | CDK6 = 0

Cc1c(C(=O)Nc2ccc(Oc3ccnc4cc(OCC(C)(C)O)ccc34)c(F)c2)c(=O)n(-c2ccccc2)n1C [Ningetinib Tosylate] (10 µM)
inactive: BRAF_V600E 0 | BTK 0 | CAMK2A 0 | CAMK2G 0 | CDK10 = 0 | CDK2 = 0 | CDK3 = 0 | CDK4 = 0 | CDK5 = 0 | CDK6 = 0

Cc1cc([N+](=O)[O-])c(NS(=O)(=O)c2cccc(C(=O)O)c2)cc1-c1cccnc1 [Alofanib] (10 µM)
inactive: BRAF_V600E 0 | BTK 0 | CAMK2A 0 | CAMK2G 0 | CDK10 = 0 | CDK2 = 0 | CDK3 = 0 | CDK4 = 0 | CDK5 = 0 | CDK6 = 0

CC(C)(C)S(=O)(=O)c1cc2c(Nc3ccc4scnc4c3)ccnc2cc1OCCOCCOCCOCCOCC(=O)Nc1cccc2c1CN(C1CCC(=O)NC1=O)C2=O (stereo not given) [PROTAC RIPK degrader-6] (10 µM)
inactive: BRAF_V600E 0 | BTK 0 | CAMK2A 0 | CAMK2G 0 | CDK10 = 0 | CDK2 = 0 | CDK3 = 0 | CDK4 = 0 | CDK5 = 0 | CDK6 = 0

Cc1cc(F)c(Nc2ncnc3cc(OCc4ccccc4)ccc23)cc1O (10 µM)
inactive: BRAF_V600E 0 | BTK 0 | CAMK2A 0 | CAMK2G 0 | CDK10 = 0 | CDK2 = 0 | CDK3 = 0 | CDK4 = 0 | CDK5 = 0 | CDK6 = 0

CNCCOc1ccccc1C(C)(C)Nc1nccn(-c2cc(C(=O)NC3CC3)ccc2C)c1=O [p38α inhibitor 2] (10 µM)
inactive: BRAF_V600E 0 | BTK 0 | CAMK2A 0 | CAMK2G 0 | CDK10 = 0 | CDK2 = 0 | CDK3 = 0 | CDK4 = 0 | CDK5 = 0 | CDK6 = 0

Some of these compounds in order of number of heavy atoms, low to high.
Cc1cc(F)c(Nc2ncnc3cc(OCc4ccccc4)ccc23)cc1O (10 µM)
inactive: BRAF_V600E 0 | BTK 0 | CAMK2A 0 | CAMK2G 0 | CDK10 = 0 | CDK2 = 0 | CDK3 = 0 | CDK4 = 0 | CDK5 = 0 | CDK6 = 0

CNCCOc1ccccc1C(C)(C)Nc1nccn(-c2cc(C(=O)NC3CC3)ccc2C)c1=O [p38α inhibitor 2] (10 µM)
inactive: BRAF_V600E 0 | BTK 0 | CAMK2A 0 | CAMK2G 0 | CDK10 = 0 | CDK2 = 0 | CDK3 = 0 | CDK4 = 0 | CDK5 = 0 | CDK6 = 0

CC(C)(C)S(=O)(=O)c1cc2c(Nc3ccc4scnc4c3)ccnc2cc1OCCOCCOCCOCCOCC(=O)Nc1cccc2c1CN(C1CCC(=O)NC1=O)C2=O (stereo not given) [PROTAC RIPK degrader-6] (10 µM)
inactive: BRAF_V600E 0 | BTK 0 | CAMK2A 0 | CAMK2G 0 | CDK10 = 0 | CDK2 = 0 | CDK3 = 0 | CDK4 = 0 | CDK5 = 0 | CDK6 = 0

(continued)

Cc1ccc(Nc2c(C(N)=O)cnc3cc(-c4ccncc4)ccc23)cc1C [cFMS Receptor Inhibitor II] (10 µM)
inactive: BRAF_V600E 0 | BTK 0 | CAMK2A 0 | CAMK2G 0 | CDK10 = 0 | CDK2 = 0 | CDK3 = 0 | CDK4 = 0 | CDK5 = 0 | CDK6 = 0

Oc1ccc2ccccc2c1SSc1c(O)ccc2ccccc12 (10 µM)
inactive: BRAF_V600E 0 | BTK 0 | CAMK2A 0 | CAMK2G 0 | CDK10 = 0 | CDK2 = 0 | CDK3 = 0 | CDK4 = 0 | CDK5 = 0 | CDK6 = 0

CN(C)CCCn1cc(C2=C(c3c[nH]c4ccccc34)C(=O)NC2=O)c2ccccc21 [Bisindolylmaleimide I] (2.5 µM)
inactive: BRAF_V600E 0 | BTK 0 | CAMK2A 0 | CAMK2G 0 | CDK10 = 0 | CDK2 = 0 | CDK3 = 0 | CDK4 = 0 | CDK5 = 0 | CDK6 = 0

C1=N/C2=N/c3ccc(OCCN4CCCC4)c(c3)COC/C=C/COCc3cccc(c3)C(=C1)N2 [Pacritinib] (2.5 µM)
inactive: BRAF_V600E 0 | BTK 0 | CAMK2A 0 | CAMK2G 0 | CDK10 = 0 | CDK2 = 0 | CDK3 = 0 | CDK4 = 0 | CDK5 = 0 | CDK6 = 0

CC(C)[C@H](CO)Nc1nc(Nc2ccc(C(=O)O)c(Cl)c2)c2ncn(C(C)C)c2n1 [Purvalanol B] (10 µM)
inactive: BRAF_V600E 0 | BTK 0 | CAMK2A 0 | CAMK2G 0 | CDK10 = 0 | CDK2 = 0 | CDK3 = 0 | CDK4 = 0 | CDK5 = 0 | CDK6 = 0

NC(=O)c1ccc2nc(-c3ccc(C4(N)CCC4)cc3)c(-c3ccccc3)n2n1 (10 µM)
inactive: BRAF_V600E 0 | BTK 0 | CAMK2A 0 | CAMK2G 0 | CDK10 = 0 | CDK2 = 0 | CDK3 = 0 | CDK4 = 0 | CDK5 = 0 | CDK6 = 0

CC(C)=CCC/C(C)=C/CC/C(C)=C/CSc1ccccc1C(=O)O [Salirasib] (10 µM)
inactive: BRAF_V600E 0 | BTK 0 | CAMK2A 0 | CAMK2G 0 | CDK10 = 0 | CDK2 = 0 | CDK3 = 0 | CDK4 = 0 | CDK5 = 0 | CDK6 = 0

CC(=O)Nc1nc(C)c(-c2ccc(Cl)c(S(=O)(=O)NCCO)c2)s1 (10 µM)
inactive: BRAF_V600E 0 | BTK 0 | CAMK2A 0 | CAMK2G 0 | CDK10 = 0 | CDK2 = 0 | CDK3 = 0 | CDK4 = 0 | CDK5 = 0 | CDK6 = 0

COc1cc(-c2cnc(N)c(-c3ccc(NC(=O)c4cn(CC5CCOCC5)cc(-c5ccc(C)cn5)c4=O)cc3F)c2)ccc1OC[C@H]1COCCO1 [DS-1205b (free base)] (10 µM)
inactive: BRAF_V600E 0 | BTK 0 | CAMK2A 0 | CAMK2G 0 | CDK10 = 0 | CDK2 = 0 | CDK3 = 0 | CDK4 = 0 | CDK5 = 0 | CDK6 = 0

Cn1cc(-c2cn3nccc3c(-c3cnn([C@]4(CC#N)C[C@@H](C#N)C4)c3)n2)cn1 (10 µM)
inactive: BRAF_V600E 0 | BTK 0 | CAMK2A 0 | CAMK2G 0 | CDK10 = 0 | CDK2 = 0 | CDK3 = 0 | CDK4 = 0 | CDK5 = 0 | CDK6 = 0

CNC(=O)c1ccc(-c2cnc3ncc(Cc4ccc5ncccc5c4)n3n2)cc1F [Capmatinib] (10 µM)
inactive: BRAF_V600E 0 | BTK 0 | CAMK2A 0 | CAMK2G 0 | CDK10 = 0 | CDK2 = 0 | CDK3 = 0 | CDK4 = 0 | CDK5 = 0 | CDK6 = 0

CCc1ccc(NC(=O)Nc2ccccc2)cc1 (10 µM)
inactive: BRAF_V600E 0 | BTK 0 | CAMK2A 0 | CAMK2G 0 | CDK10 = 0 | CDK2 = 0 | CDK3 = 0 | CDK4 = 0 | CDK5 = 0 | CDK6 = 0

COc1cccc(Nc2ncnn3ccc(CN4CC[C@@H](N)[C@H](O)C4)c23)c1 (2.5 µM)
inactive: BRAF_V600E 0 | BTK 0 | CAMK2A 0 | CAMK2G 0 | CDK10 = 0 | CDK2 = 0 | CDK3 = 0 | CDK4 = 0 | CDK5 = 0 | CDK6 = 0

O=S(=O)(N=Cc1c(O)ccc2ccccc12)c1cccs1 (10 µM)
inactive: BRAF_V600E 0 | BTK 0 | CAMK2A 0 | CAMK2G 0 | CDK10 = 0 | CDK2 = 0 | CDK3 = 0 | CDK4 = 0 | CDK5 = 0 | CDK6 = 0

O=C(c1ccc(NS(=O)(=O)c2cccc3cccnc23)cc1)N1CCN(CC2CC2)CC1 [Mitapivat] (10 µM)
inactive: BRAF_V600E 0 | BTK 0 | CAMK2A 0 | CAMK2G 0 | CDK10 = 0 | CDK2 = 0 | CDK3 = 0 | CDK4 = 0 | CDK5 = 0 | CDK6 = 0

COc1cc(OC)c(/C=C/S(=O)(=O)Cc2ccc(OC)c(NCC(=O)O)c2)c(OC)c1 [Rigosertib (sodium)] (10 µM)
inactive: BRAF_V600E 0 | BTK 0 | CAMK2A 0 | CAMK2G 0 | CDK10 = 0 | CDK2 = 0 | CDK3 = 0 | CDK4 = 0 | CDK5 = 0 | CDK6 = 0

Cc1occ2c1C(=O)c1c(O)ccc(O)c1C2 (2.5 µM)
inactive: BRAF_V600E 0 | BTK 0 | CAMK2A 0 | CAMK2G 0 | CDK10 = 0 | CDK2 = 0 | CDK3 = 0 | CDK4 = 0 | CDK5 = 0 | CDK6 = 0

CC[C@H](C)[C@H](NC(=O)[C@H](CCCCN)NC(=O)[C@H](CC(C)C)NC(=O)[C@@H]1CCCN1C(=O)[C@H](CCC(=O)O)NC(=O)[C@H](Cc1ccc(O)cc1)NC(=O)[C@@H](NC(=O)[C@H](CO)NC(=O)CNC(=O)[C@H](CO)NC(=O)[C@H](CCCN=C(N)N)NC(=O)[C@H](CCCCN)NC(=O)[C@@H](NC(=O)[C@@H](N)CCCN=C(N)N)[C@@H](C)O)C(C)C)C(=O)O [Malantide] (10 µM)
inactive: BRAF_V600E 0 | BTK 0 | CAMK2A 0 | CAMK2G 0 | CDK10 = 0 | CDK2 = 0 | CDK3 = 0 | CDK4 = 0 | CDK5 = 0 | CDK6 = 0

C[C@@H](N)COc1ccc(-c2cnc3ccc(N[C@H](C)c4cccc(F)c4)nn23)cc1 [Taletrectinib] (2.5 µM)
inactive: BRAF_V600E 0 | BTK 0 | CAMK2A 0 | CAMK2G 0 | CDK10 = 0 | CDK2 = 0 | CDK3 = 0 | CDK4 = 0 | CDK5 = 0 | CDK6 = 0

O=C(CCc1ccc2n1[B-](F)(F)[N+]1=C(c3ccc[nH]3)C=CC1=C2)ON1C(=O)CCC1=O [Py-BODIPY-NHS ester] (2.5 µM)
inactive: BRAF_V600E 0 | BTK 0 | CAMK2A 0 | CAMK2G 0 | CDK10 = 0 | CDK2 = 0 | CDK3 = 0 | CDK4 = 0 | CDK5 = 0 | CDK6 = 0

Cn1cc(-c2ccc3nnc(Sc4ccc5nn(C)cc5c4)n3n2)cn1 [c-Met inhibitor 1] (10 µM)
inactive: BRAF_V600E 0 | BTK 0 | CAMK2A 0 | CAMK2G 0 | CDK10 = 0 | CDK2 = 0 | CDK3 = 0 | CDK4 = 0 | CDK5 = 0 | CDK6 = 0
